Data from paper PMC7819943, “Rice protein-binding microarrays: a tool to detect cis-acting elements near promoter regions in rice”.
The other results are listed elsewhere or left out.

Biological target: T1, OsSMF1 (Oryza sativa, UniProt Q6ZLB0 1-436)
T1 sequence: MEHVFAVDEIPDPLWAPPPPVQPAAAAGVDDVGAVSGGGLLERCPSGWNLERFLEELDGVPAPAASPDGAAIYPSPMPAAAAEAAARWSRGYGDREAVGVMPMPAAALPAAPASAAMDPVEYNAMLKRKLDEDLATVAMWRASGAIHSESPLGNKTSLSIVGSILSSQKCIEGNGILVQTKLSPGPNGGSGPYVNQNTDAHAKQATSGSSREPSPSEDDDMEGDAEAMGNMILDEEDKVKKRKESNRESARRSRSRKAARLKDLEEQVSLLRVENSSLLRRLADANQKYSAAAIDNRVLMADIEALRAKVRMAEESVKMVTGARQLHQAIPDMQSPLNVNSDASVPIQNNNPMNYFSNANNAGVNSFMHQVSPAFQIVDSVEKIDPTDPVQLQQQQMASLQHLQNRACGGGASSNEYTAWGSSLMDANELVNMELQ
Test: protein-binding microarray (RPBM); PBS, 2% BSA, 51.3 ng/ul salmon testes DNA, 50 uM zinc acetate, 200 nM TF, 25 C, 1 h; high values mean tight binding
Settings: protein: recombinant; tags: N-terminal polyhistidine and DsRed monomer fusion (pET32a); chain copies: 2; label: CyDye5-dUTP incorporated in the synthesized complementary strand; 3' TTTTT single-stranded linker to array surface; dsDNA, one strand shown
Method in brief: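 Binding signal here means per-feature fluorescence intensity in arbitrary units. The values were read on an Axon 4000B scanner after a custom Agilent array, double-stranded by primer extension with Cy5-dUTP, was incubated with 200 nM protein at 25 °C for 1 h in PBS with 2% BSA, salmon testes DNA and 50 µM zinc acetate, then washed. The proteins were transcription factors with an N-terminal polyhistidine tag and DsRed, expressed in E. coli BL21-CodonPlus and purified on Ni–NTA.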

Sequence	binding signal
ATGGTGAACACGACTGGATGAGTGGGTCAAACATGTTCCCCGGAGTCACCTAGTGCAG	3180 fluorescence intensity (a.u.)
AACGAGCCGAACCGAGCCGAGCTTGGTCACGAGCAGAGCTCGGAGTCACCTAGTGCAG	3170 fluorescence intensity (a.u.)
CCCTATTTATACAGCTCAGCACCCTCACTCCCACTCACAACGGAGTCACCTAGTGCAG	6570 fluorescence intensity (a.u.)
GTAGGGGTAGGGGTGGCGTGGCGTGTGCCAATGACCTAACCGGAGTCACCTAGTGCAG	5320 fluorescence intensity (a.u.)
AGCCAGGAACCTGCCAGCGTGTGCACTCCACGAACAGGGCCGGAGTCACCTAGTGCAG	4310 fluorescence intensity (a.u.)
TTCCGATCCGAGGTCAAATTGGGAGTGCTACGCGGGAAAGCGGAGTCACCTAGTGCAG	38200 fluorescence intensity (a.u.)
TAAAATTTATTACTACTCGCGGCCACGTAGATGCAACGCGCGGAGTCACCTAGTGCAG	8070 fluorescence intensity (a.u.)
AGGCCGCCGACGAGCTTGAGGATGACCTCGCCGTCCTCCTCGGAGTCACCTAGTGCAG	3320 fluorescence intensity (a.u.)
TCATCTGTATGATATATAGTACTACATCTTTTGACATTTTCGGAGTCACCTAGTGCAG	3690 fluorescence intensity (a.u.)
CGCGTCGCTCACGGGGCTGCACCTCCAGCTCAACGCCTTCCGGAGTCACCTAGTGCAG	4420 fluorescence intensity (a.u.)
TTTCTGTATCTTTGACATCGGCGCTCCTAATATGTCACCGCGGAGTCACCTAGTGCAG	4180 fluorescence intensity (a.u.)
TCGTCGTCCACCAAGAGGCTGGTTCGTCCTCACCATCTCGCGGAGTCACCTAGTGCAG	6020 fluorescence intensity (a.u.)
GAACATTTGAGTCATCTACTATCTTGCAATATCACTCTTCCGGAGTCACCTAGTGCAG	6570 fluorescence intensity (a.u.)
ACTAGCTGGACGGTCAATCCACGTGGTTTGTTCATTGCCTCGGAGTCACCTAGTGCAG	9780 fluorescence intensity (a.u.)
GCCGCACACCAACTGACGTGTGGGGCCTCCAAACCGCAAGCGGAGTCACCTAGTGCAG	5240 fluorescence intensity (a.u.)
TCTATCAACCCGTCACCCTATCACACGTCATCGACAAAGGCGGAGTCACCTAGTGCAG	23800 fluorescence intensity (a.u.)
GCAAGGATCATGTCAGGAGAACCCAGCATGGTTAATGCATCGGAGTCACCTAGTGCAG	17400 fluorescence intensity (a.u.)
GCACCTTCCCCGCCACGTGTTCCGCCACCGCTCTCAACTCCGGAGTCACCTAGTGCAG	16600 fluorescence intensity (a.u.)
TACTCAATCCGGGGTGGTTTTGGGTCCACGTGGCAGTCCACGGAGTCACCTAGTGCAG	35300 fluorescence intensity (a.u.)
CGGCGGCATCGCTGATGTCATCATCATCTCTCCCCTTCCTCGGAGTCACCTAGTGCAG	13600 fluorescence intensity (a.u.)
CGCGACAACACACCGCCACAAGATGACGCTGACGCACGCTCGGAGTCACCTAGTGCAG	5500 fluorescence intensity (a.u.)
CTCTAGTTAGGTGATGACACCCGTGGACCAACATGCCTGGCGGAGTCACCTAGTGCAG	3200 fluorescence intensity (a.u.)
AAAATTTGGTCAGATCAGATGAGTCATGAAATGGATGGATCGGAGTCACCTAGTGCAG	12000 fluorescence intensity (a.u.)
ACGTGGTGTTGTTGACACAGCAGCTAGTCAGCCAGCAGGACGGAGTCACCTAGTGCAG	5350 fluorescence intensity (a.u.)
AATGACGTTTTGACTTATCGTCAGTCGTGACATGTAAGTGCGGAGTCACCTAGTGCAG	26200 fluorescence intensity (a.u.)
TAATTTTGTTCTTATTCTAATGCCACGTAAGCGCCACGTACGGAGTCACCTAGTGCAG	29400 fluorescence intensity (a.u.)
TGCTAAATGTGACAATGCGAGAGCCAATCAGCCAAAGCAGCGGAGTCACCTAGTGCAG	3350 fluorescence intensity (a.u.)

Sequence	binding signal
AAGGTAGAGTCAAATAGAAGCTCTATATCATGTAGACACTCGGAGTCACCTAGTGCAG	3360 fluorescence intensity (a.u.)
TAATTTTGTGACACACCGAATTAAATGGACAGTTTTGTGACGGAGTCACCTAGTGCAG	3540 fluorescence intensity (a.u.)
GTTGGGTCGTTGGGATCACGTGGTGGCGAGAGTGAAGACGCGGAGTCACCTAGTGCAG	3670 fluorescence intensity (a.u.)
CCCAAACACATTTTCACTCCTAGATCCAAGTCAACCGACCCGGAGTCACCTAGTGCAG	3340 fluorescence intensity (a.u.)
CTACATTGCTAATCCAAATAATTAGCACTAATCACGAAATCGGAGTCACCTAGTGCAG	5180 fluorescence intensity (a.u.)
ATTTCTACTCCGACCACTGGAACTAGTGAATGATGCGGCGCGGAGTCACCTAGTGCAG	3720 fluorescence intensity (a.u.)
TCTCTCTCTCTCTCTCTCTCTCATGGTCATCGCTTCCCTTCGGAGTCACCTAGTGCAG	4060 fluorescence intensity (a.u.)
GAATGGGCCGGCCTAGCTAAGAAGCAAAACTGGGTATAGTCGGAGTCACCTAGTGCAG	4210 fluorescence intensity (a.u.)
ACCATCCGATTTCCGCGCCCGTGATTTCACACGTCTCGCGCGGAGTCACCTAGTGCAG	3570 fluorescence intensity (a.u.)
CACGCCACGCCACGCCTCACCTCACCACCACCAGGCACCACGGAGTCACCTAGTGCAG	5930 fluorescence intensity (a.u.)
TCCTTGTTTATTTCCTTTCATTCGAACTAGAATTGTAATCCGGAGTCACCTAGTGCAG	19500 fluorescence intensity (a.u.)
AAAAGTAGTTTTGCACGTCCCTCCAGCATCAGCATCGGACCGGAGTCACCTAGTGCAG	4470 fluorescence intensity (a.u.)
AATACGCATCTAGTCGGCCGCGCCAAACGGCCAAACCCATCGGAGTCACCTAGTGCAG	3310 fluorescence intensity (a.u.)
CTGTTAATTCCAGTGTTAGAGATCCACGTCGTGTTGATCACGGAGTCACCTAGTGCAG	4940 fluorescence intensity (a.u.)
GTCGCTAACTAAGGTGTCGGGAGAGAGAGATTAGTCAGATCGGAGTCACCTAGTGCAG	5040 fluorescence intensity (a.u.)
CTGTCTTACTACAAGAAATGGCACGTAGGAGTAGGCAGATCGGAGTCACCTAGTGCAG	4330 fluorescence intensity (a.u.)
ATCGAATTGTCACGTAAGCGCCACGTCAATGCTACGTCAGCGGAGTCACCTAGTGCAG	26100 fluorescence intensity (a.u.)
AGTGCACAGTTGATAACAAGAGGAGACGTAGTGCTGTGATCGGAGTCACCTAGTGCAG	3700 fluorescence intensity (a.u.)
TAATTATAGAACAACCATAATGTAAGGGGAAAATATATGACGGAGTCACCTAGTGCAG	11700 fluorescence intensity (a.u.)
GGGGAGGGAGAGGCCACGTCGTCAGCCAGCCAGCCATTTCCGGAGTCACCTAGTGCAG	34800 fluorescence intensity (a.u.)
CTCTAAATTTGTGCAGATGTGTCACCTAGATCCCTGAACTCGGAGTCACCTAGTGCAG	4340 fluorescence intensity (a.u.)
AACTCCAGTCAAAGCGTCCGTGTCATCGCTATCGTCCATGCGGAGTCACCTAGTGCAG	7880 fluorescence intensity (a.u.)
GAGGTGGTGTCGGGGAGGTTGGGAGGTGCAGGATGCATGCCGGAGTCACCTAGTGCAG	3470 fluorescence intensity (a.u.)
GGGAGAGGCCTCGCGTCGCGTCTCCCACGTATCGTGGTCCCGGAGTCACCTAGTGCAG	3890 fluorescence intensity (a.u.)
ATGACGATAGAGAAACGCACGTCACCGCAACAACCGCCAACGGAGTCACCTAGTGCAG	4270 fluorescence intensity (a.u.)
CTGCGCCGCCGTCCCGCCGCCTTCCCGCCACGCGAGCCGTCGGAGTCACCTAGTGCAG	5670 fluorescence intensity (a.u.)
CAGTATCCTATTCATTCTTAAGTTCTTAATGATACCCGAGCGGAGTCACCTAGTGCAG	3510 fluorescence intensity (a.u.)

Reprinted at random: 4 records from the list, in no set order.
Sequence	binding signal
TTTCTGTATCTTTGACATCGGCGCTCCTAATATGTCACCGCGGAGTCACCTAGTGCAG	4180 fluorescence intensity (a.u.)
GTAGGGGTAGGGGTGGCGTGGCGTGTGCCAATGACCTAACCGGAGTCACCTAGTGCAG	5320 fluorescence intensity (a.u.)
TAAAATTTATTACTACTCGCGGCCACGTAGATGCAACGCGCGGAGTCACCTAGTGCAG	8070 fluorescence intensity (a.u.)
TCCTTGTTTATTTCCTTTCATTCGAACTAGAATTGTAATCCGGAGTCACCTAGTGCAG	19500 fluorescence intensity (a.u.)
